According to article PMC4969687:

Target: T1, Myc-Dishevelled (UniProt P51142)
T1 sequence: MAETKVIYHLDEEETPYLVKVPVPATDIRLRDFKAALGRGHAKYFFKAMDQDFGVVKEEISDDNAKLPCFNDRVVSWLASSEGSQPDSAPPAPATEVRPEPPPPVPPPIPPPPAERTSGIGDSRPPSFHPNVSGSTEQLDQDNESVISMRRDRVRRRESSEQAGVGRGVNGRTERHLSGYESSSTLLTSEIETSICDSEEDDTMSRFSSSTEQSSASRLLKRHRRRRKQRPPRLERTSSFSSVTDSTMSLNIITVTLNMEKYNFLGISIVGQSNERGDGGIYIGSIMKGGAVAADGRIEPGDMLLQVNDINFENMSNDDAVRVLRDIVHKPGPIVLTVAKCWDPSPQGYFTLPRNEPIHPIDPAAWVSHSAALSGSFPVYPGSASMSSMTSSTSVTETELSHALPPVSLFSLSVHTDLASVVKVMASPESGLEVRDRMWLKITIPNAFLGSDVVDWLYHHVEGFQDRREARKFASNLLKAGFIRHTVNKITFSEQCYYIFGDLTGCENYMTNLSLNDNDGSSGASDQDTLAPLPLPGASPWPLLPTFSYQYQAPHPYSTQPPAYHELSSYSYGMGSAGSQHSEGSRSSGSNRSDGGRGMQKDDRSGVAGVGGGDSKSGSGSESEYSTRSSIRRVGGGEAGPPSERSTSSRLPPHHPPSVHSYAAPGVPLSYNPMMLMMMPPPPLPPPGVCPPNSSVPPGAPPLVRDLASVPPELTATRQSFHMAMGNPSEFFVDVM
Assay: co-IP; mRNAs for HA-Gtpbp2 and Myc-tagged proteins injected into two-cell Xenopus embryos; lysed at gastrula stage 11; immunoprecipitation with anti-myc antibody; blot for co-precipitated HA-Gtpbp2

## HA-Gtpbp2 (GTP-binding protein 2) (Xenopus)
  binding: binds

Results are given in words; binding and its absence hold for the method and conditions named. Binding seen in cells or lysates may run through a third protein. A result given as binding can be weak or reduced; the word gives no strength. Tags and fused reporters may be left off the sequences shown.
